Assay results: PubChem BioAssay AID2685 (National Center for Advancing Translational Sciences (NCATS), 2010)
The campaign covered roughly 320,000 compounds. About 2,100 (0.66%) were called active. This list was built around the results that the source calls inconclusive (neither active nor inactive); the mix of calls is not that of the screen. The call rests on the fitted dose curve; in most records, active means well fitted inhibition curve with a large enough effect in the signal ratio, with a control signal flat (not every such curve was filed as active); inconclusive means small, poorly fitted or top-dose-only effect, or effect the other way, or a change in a side signal; inactive means flat fitted curve, though single readings scatter; the % refers to the signal ratio. Where the call is inconclusive, the potency comes from a doubtful curve fit.

Assay: qHTS Assay for Lipid Storage Modulators in Drosophila S3 Cells
Details: BODIPY lipid droplet fluorescence, 18-24 h, cells fed with added oleic acid; lipid storage change, negative = inhibition: at 46.1 µM (top of the series) unless noted
In short: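 Drosophila S3 cells got compounds at several concentrations plus oleic acid (400 uM solution). Laser-scanning cytometry with 488 nm excitation read lipid droplets at 500-530 nm and cells at 575-640 nm. Percent activity was relative to 20 uM Triacsin C.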
On the % scale 0 is the no-effect control and ±100 the full control effect; potency means the concentration at half of the fitted maximal effect.

Row | Compound | Potency | lipid storage change, negative = inhibition
1 | COc1ccc(C(=O)NC(=C(Cl)Cl)S(=O)(=O)c2ccc(C)cc2)cc1 | inconclusive: 7.31 µM [falling, partial curve, poor fit] | –
2 | COc1ccc(/C=C2\CCC(C3CCCC3)C2=O)c(OC)c1 (centres undefined) | – | inconclusive: 21.7%
3 | CCC1C(=NO)C(CC)C(c2ccccc2)NC1c1ccccc1 (centres undefined) | inconclusive: 23.1 µM [cytotoxic, single point] | –
4 | COC(=O)C(C(=O)OC)c1ccccc1[N+](=O)[O-] | inconclusive: 1.84 µM [falling, partial curve, poor fit] | –
5 | O=C1CC(NC(=O)C(F)(F)F)c2cc3c(cc21)OCO3 (centres undefined) | – | inconclusive: 1.26%
6 | CCCC(=O)NC1=C(C#N)C2(CCCCC2)Cc2ccccc21 | – | inconclusive: 52%
7 | Cc1cc(NC(=O)CCC(=O)N(CC(=O)NCC2CCCO2)c2cccc(C)c2C)no1 (centres undefined) | inconclusive: 1.16 µM [falling, single point] | –
8 | COCc1[nH][nH]c(=O)c1/C=N/N1CCOCC1 | – | inconclusive: -7.62%
9 | O=C(CN(CC1CCCO1)C(=O)CNS(=O)(=O)c1ccc(F)cc1)NCC1CCCO1 (centres undefined) | inconclusive: 0.103 µM [activator, partial curve, poor fit] | –
10 | COc1ccc(NS(=O)(=O)/C=C/c2ccccc2)cc1 | – | inconclusive: 34.2%
11 | CC1=C(C(=O)NCCCOC(C)C)C2(CCC(C)CC2)OC1=O (centres undefined) | – | inconclusive: -1.27%
12 | Cc1noc(C(=O)N2CCN(c3ccccc3)CC2)c1Cl | inconclusive: 0.082 µM [activator, full curve, poor fit] | –
13 | CCC(=O)N(Cc1ccco1)C1CC(=O)N(c2ccccc2)C1=O (centres undefined) | – | inconclusive: -5.83%
14 | Cc1sc2ncnc(N3CCC(C(=O)NCC(=O)Nc4ccc(F)c(F)c4)CC3)c2c1C | – | inconclusive: -20.1%
15 | CN(CC(=O)Nc1ccc(F)cc1)C(=O)C1CCN(C(=O)Nc2ccccc2)CC1 | inconclusive: 0.58 µM [falling, full curve] | –
16 | Cc1ccc(C)c(S(=O)(=O)Nc2ccc(C(N)=O)cc2)c1 | – | inconclusive: -5.91%
17 | O=C(NCC(Cl)c1ccc2ccccc2c1)c1c(F)cccc1F (centres undefined) | inconclusive: 1.3 µM [falling, full curve, poor fit] | –
18 | COc1ccccc1-n1c(C)nc2cc(C(=O)NCc3ccc4c(c3)OCO4)ccc21 | – | inconclusive: 2.31%
19 | COc1cccc(C(=O)NCCCNC(=O)c2cccc(OC)c2)c1 | – | inconclusive: -4.08%
20 | CCOc1cccc(CN2CCC(n3nccc3NC(=O)C3CCCC3)CC2)c1 | – | inconclusive: 31.4%
21 | O=C(OCC(=O)N1CCc2ccccc2C1)c1ccc(OC(F)F)cc1 | – | inconclusive: 0.915%
22 | COc1ccc(-c2cc(C(=O)NCc3cccnc3)no2)cc1 | inconclusive: 29.1 µM [activator, single point] | –
23 | O=C(COc1ccc2ccccc2c1)Nc1cccc(C(=O)Nc2ccccc2C(=O)O)c1 | – | inconclusive: 28.1%
24 | Cc1nn(C/C(C#N)=N\O)c(C)[n+]1N | – | inconclusive: -27.6%
25 | CC(=O)c1c(C)[nH]c(C(=O)COC(=O)CCOc2ccc(C)cc2)c1C | – | inconclusive: -13.5%

Row | Compound | Potency | lipid storage change, negative = inhibition
26 | COc1ccc(-c2cc3c(=O)n(CC(=O)NCc4ccc(C)cc4)ncn3n2)cc1 | – | inconclusive: 17.1%
27 | C=CCN(CC=C)C(=O)c1c(OC)cccc1OC | – | inconclusive: -5.5%
28 | Cc1cc(/C=C2/C(=O)N(C)C(=S)N2C)ccc1N1CCCC1 | active: 4.47 µM | –
29 | O=S(=O)(/N=C(\Sc1ccccc1)c1ccccc1)c1ccc(Cl)cc1 | – | inconclusive: -24.7%
30 | COc1ccc(CCNC(=O)COc2ccc(S(=O)(=O)NCC(C)C)cc2Cl)cc1OC | inconclusive: 9.2 µM [falling, partial curve] | –
31 | CN1CCN(C(=O)CSc2nc(-c3cccs3)cc(-c3cccs3)c2C#N)CC1 | – | inconclusive: -12.8%
32 | Cc1cn([C@@H](CCCCN)C(=O)NCCCCCCCCCCC(=O)N2CCNCC2)nn1 | – | inconclusive: -13.7%
33 | COc1ccccc1/C=C/C(=O)Nc1cccnc1 | active: 5.8 µM | –
34 | O=C(c1cccc(Br)c1)N1CCCC1 | inconclusive: 1.64 µM [activator, partial curve, poor fit] | –
35 | COc1cccc(CNC(=O)CCS(=O)(=O)Cc2ccc(C)cc2)c1 | inconclusive: 6.51 µM [falling, single point] | –
36 | CN1CCCC(OC(=O)c2cc(Br)ccc2Cl)C1 (centres undefined) | – | inconclusive: -31.9%
37 | CCc1ccc(N(CC(=O)NC2CC2)S(=O)(=O)c2ccc(C)cc2)cc1 | – | inconclusive: 9.72%
38 | COCCC(=O)N1CCCC(C(=O)c2ccc(C(F)(F)F)cc2)C1 (centres undefined) | inconclusive: 6.51 µM [activator, single point] | –
39 | CN(C)CCCN(C(=O)CCOc1ccccc1)c1nc2c(F)cccc2s1 | inconclusive: 29.1 µM [cytotoxic, single point] | –
40 | COCCN(Cc1cc2cc(C)ccc2[nH]c1=O)S(=O)(=O)c1ccc(Cl)cc1 | – | inconclusive: -0.356%
41 | CCOC(=O)c1sc(NC(=O)CSc2nc3c(cc2C#N)CCCCC3)c(C#N)c1C | inconclusive: 0.103 µM [falling, full curve, poor fit] | –
42 | Cc1cccc(OCCOC(=O)Nc2ccccc2)c1 | – | inconclusive: 12.9%
43 | COc1cc(OC)cc(C(=O)Nc2sc3c(c2C(N)=O)CCC3)c1 | inconclusive: 3.66 µM [falling, partial curve, poor fit] | –
44 | Cc1ccccc1NS(=O)(=O)CCCCC(Cl)(Cl)Cl | – | inconclusive: -18.1%
45 | O=C1C(Cc2ccccc2)Nc2ncnc(N3CCOCC3)c2N1Cc1ccc(Br)cc1 (centres undefined) | – | inconclusive: 12.7%
46 | O=C(CNc1ccccc1-c1ccccc1)NCc1ccccc1 | – | inconclusive: 21.2%
47 | Cc1ccnc(NC(=O)c2cc3ccccc3oc2=O)c1 | – | inconclusive: -35.5%
48 | CC(NC(=O)c1ccccc1F)C(=O)O (centres undefined) | – | inconclusive: -6.28%
49 | Cc1ccc(NC(=O)Cn2ncc3ccccc32)c(Cl)c1 | – | inconclusive: -46.1%

Compounds 36 to 37 from above:
Row | Compound | Potency | lipid storage change, negative = inhibition
36 | CN1CCCC(OC(=O)c2cc(Br)ccc2Cl)C1 (centres undefined) | – | inconclusive: -31.9%
37 | CCc1ccc(N(CC(=O)NC2CC2)S(=O)(=O)c2ccc(C)cc2)cc1 | – | inconclusive: 9.72%
